Out of some 31,000 sequences screened, about 1,400 (4.5%) were called active.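 How the source made its calls: active means median seed-adjusted z-score above 1 or below -1; inactive means the rest.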 The list shows a part of the results.
Test: Novel Modifiers of Survival Motor Neuron (SMN) Protein: Gene Identification via Genome-wide siRNA Screen;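 further: luminescence tracks full-length SMN protein made from the SMN2 reporter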
Conditions: HEK293T SMN2-luciferase reporter, siRNA knockdown, 72 h; actives lie on both sides
Method in brief: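 HEK293T cells stably expressing an SMN2 splicing/cDNA-luciferase reporter were reverse-transfected with a druggable-genome siRNA library and read by luminescence at 72 hours; hits defined by MAD score above 1.0 or below -1.0.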

| Sequence | median seed-adjusted z-score |
| --- | --- |
| GUCUGAUAGAGCAAAGGUATT against FAM98B | inactive: -0.0162 |
| GGAUAGUAAUUGUUGAGGATT against CNTN5 | inactive: -0.236 |
| CAUAUAGCAUUGACUCAAATT against ZNF596 | inactive: 0.486 |
| CCACAACUCUUGAACAUCATT against EIF3I | inactive: -0.0445 |
| CCAUUAUGGUGUCAUUACATT against RORA | inactive: -0.144 |
| CCAUAGUCUUCAUCUACGATT against GPR153 | active: -1.08 |
| AAACUGAUGCGUUCAGAUATT against MBNL3 | inactive: -0.189 |
| CCUACAUCAGGAAUACUAATT against GALNTL1 | inactive: -0.234 |
| CUAGAGGUGUCAGAACGAATT against PRKAR2A | inactive: 0.213 |
| GGCUAUUGGUCUUAGACGATT against GPR85 | inactive: 0.0452 |
| GCAAUUACCAGUGAUAACATT against SEC24B | inactive: -0.493 |
| CCUUCAUUGUUGAUCGUUATT against FAT4 | inactive: -0.363 |
| GGCCUGUACCUGCUACAAATT against EPPK1 | inactive: 0.786 |
| GGUGCUAACCGGAUAGUAUTT against LRP6 | inactive: -0.116 |
| CAACGAUUCUUCUUCAAAATT against STAT4 | inactive: 0.734 |
| GGACGUACUGGACAGUGAATT against USP27X | inactive: 0.43 |
| GGAGCUCGAUGAAAUCCGATT against CALN1 | inactive: 0.0753 |
| GGUGAGUGGUUGUUGCUCUTT against DALRD3 | inactive: 0.338 |
| GCUCCACAUUUAUCCAGCATT against ZNF599 | inactive: 0.0896 |
| GGAAUAUCUUUGACGGUUUTT against SCN1A | inactive: 0.031 |
| AACCAAAAUUUAUCACCCUTT against UBE2D4 | inactive: 0.232 |
| GCAGCAUCGUAUCCAUGAATT against KCNB1 | inactive: 0.0206 |
| CCACGUUGAUUCAAGAUCATT against VPS35 | inactive: -0.511 |
| GCAUCUCAGAUGUCAAUAATT against ZNF394 | inactive: -0.462 |
| UCUACUGGUUGGUAACAAATT against RALA | inactive: 0.553 |
| CUUCUAGACCUGCUCCAAATT against ISLR | inactive: 0.00807 |
| GACUUGAUGUCCAAACUGATT against PHF19 | inactive: -0.195 |

No new results follow: an excerpt of the list.

| Sequence | median seed-adjusted z-score |
| --- | --- |
| CUAGAGGUGUCAGAACGAATT against PRKAR2A | inactive: 0.213 |
| GGCUAUUGGUCUUAGACGATT against GPR85 | inactive: 0.0452 |
| GCAAUUACCAGUGAUAACATT against SEC24B | inactive: -0.493 |
| CCUUCAUUGUUGAUCGUUATT against FAT4 | inactive: -0.363 |
| GGCCUGUACCUGCUACAAATT against EPPK1 | inactive: 0.786 |
| GGUGCUAACCGGAUAGUAUTT against LRP6 | inactive: -0.116 |
| CAACGAUUCUUCUUCAAAATT against STAT4 | inactive: 0.734 |
| GGACGUACUGGACAGUGAATT against USP27X | inactive: 0.43 |
| GGAGCUCGAUGAAAUCCGATT against CALN1 | inactive: 0.0753 |
| GGUGAGUGGUUGUUGCUCUTT against DALRD3 | inactive: 0.338 |
| GCUCCACAUUUAUCCAGCATT against ZNF599 | inactive: 0.0896 |
| GGAAUAUCUUUGACGGUUUTT against SCN1A | inactive: 0.031 |
| AACCAAAAUUUAUCACCCUTT against UBE2D4 | inactive: 0.232 |
| GCAGCAUCGUAUCCAUGAATT against KCNB1 | inactive: 0.0206 |

(further entries)

| Sequence | median seed-adjusted z-score |
| --- | --- |
| CCAUGUUGCUUCGCAUCAATT against NAPB | inactive: 0.716 |
| CGACUUAAAGAAGCAGAUUTT against RBBP6 | inactive: -0.212 |
| GCCUGGAGAUGUUUACCAATT against TRIM63 | inactive: -0.376 |
| GGCACGAGUUUGACAGUGATT against SNX26 | inactive: -0.788 |
| CAGUCAUUCUAAGAGUAGATT against SFRS4 | inactive: 0.239 |
| CCACUCCAUUGAAGAUGUATT against SREBF1 | inactive: -0.0469 |
| GACUCAAUGCUACUAUCAATT against ADAM32 | active: 1.75 |
| CCGUGUGGGUAAACACCUATT against ALDH1B1 | inactive: 0.105 |
| GCUCGUGAUUGAUGCUGCATT against NGB | inactive: 0 |
| GCGUGGUCAUCGUUGUCUUTT against MFSD10 | inactive: 0.0116 |
| GGAUGACCAUGUACCUCUUTT against GPRC5B | inactive: 0 |
| CAUUGACCGAUUGAAGGUATT against APOL3 | inactive: -0.0761 |
| CCUUUGUGGACUACAGUAUTT against RNF166 | inactive: -0.3 |
| GGUUAACCCAGAACGUAAATT against TCP1 | active: -1.02 |
| GGAGAUACCAGGAACCCAATT against SLC7A13 | inactive: 0.121 |
| AACAAUCUGUGGAUGGAAATT against BTF3 | inactive: 0.0468 |
| GUGGUACAAUUUAAUGAUATT against ALDH5A1 | inactive: 0.339 |
| GGAGUGAAAUUUUCUGCAATT against PCNA | inactive: 0.0727 |
| CGUGCAUGCUGUUAAGGAATT against ZNF652 | inactive: 0 |
| GAAUCGACAUUCUCAUUAATT against DECR2 | inactive: 0 |
| CUACAGUGAUGUGGAGAAATT against HPX | inactive: -0.451 |
| CCAUUGACAAUUCAACUUATT against ST8SIA1 | inactive: -0.25 |
| AUACUAACAUUUUCAUUGATT against SSX2 | inactive: -0.583 |
| GAUCAAGUAUGGACACUGATT against OGG1 | inactive: -0.128 |
| CCCUGCUCCUCACUCAUUUTT against KRTAP5-5 | active: -1.07 |
| GGAUAAAAGUACUGUAUGATT against DEGS1 | inactive: 0.0268 |
| GCUUCUCACGAGAUUGAAATT against SCARA3 | inactive: -0.05 |

Reference: PubChem BioAssay AID1347426 (Functional Genomics Laboratory (NCATS/FGL), 2020)
